Experiment [1] has as its target GST-GRIP1, the three receptor interaction domains of mouse GRIP1 (Arg 625 - Lys 765) fused to glutathione-S-transferase (mouse) (UniProt Q61026). In words: electrophoretic mobility shift, DR1 probe, LG268 0-1000 nM.
Experiment [2] shares this target. As to the kind of experiment: electrophoretic mobility shift, DR1 probe, LG268 (Figure 3 legend).

Chains of the proteins cited; added tags and fusions are not shown. Residues count along the entry.
UniProt Q61026, residues 625-765: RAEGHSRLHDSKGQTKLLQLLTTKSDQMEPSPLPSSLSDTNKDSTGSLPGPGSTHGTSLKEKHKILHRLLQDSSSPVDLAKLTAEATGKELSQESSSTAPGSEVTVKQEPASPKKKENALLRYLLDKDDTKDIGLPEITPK

Results are given in words; binding and its absence hold for the method and conditions named. Some binding calls cover weakened binding; strength is not graded here.

B1: human RXRα (9-cis retinoic acid receptor), full-length, wild type (receptor, UniProt P19793 1-462, looked up)
chain: MDTKHFLPLDFSTQVNSSLTSPTGRGSMAAPSLHPSLGPGIGSPGQLHSPISTLSSPINGMGPPFSVISSPMGPHSMSVPTTPTLGFSTGSPQLSSPMNPVSSSEDIKPPLGLNGVLKVPAHPSGNMASFTKHICAICGDRSSGKHYGVYSCEGCKGFFKRTVRKDLTYTCRDNKDCLIDKRQRNRCQYCRYQKCLAMGMKREAVQEERQRGKDRNENEVESTSSANEDMPVERILEAELAVEPKTETYVEANMGLNPSSPNDPVTNICQAADKQLFTLVEWAKRIPHFSELPLDDQVILLRAGWNELLIASFSHRSIAVKDGILLATGLHVHRNSAHSAGVGAIFDRVLTELVSKMRDMQMDKTELGCLRAIVLFNPDSKGLSNPAEVEALREKVYASLEAYCKHKYPEQPGRFAKLLLRLPALRSIGLKCLEHLFFFKLIGDTPIDTFLMEMLEAPHQMT
notes: mature; also called wild-type RXR
As to B1, the binding result in experiment [1] and in experiment [2] was “binds” throughout.

(Values after EP1165135B1 (City of Hope, dated 2004).)
